The text below walks through data of doi:10.1101/2022.02.08.479616.

The target in assay [1] is T1, ORANGE (OR), split-YFP fusion for BiFC (Arabidopsis thaliana) (UniProt Q9FKF4).
T1 sequence: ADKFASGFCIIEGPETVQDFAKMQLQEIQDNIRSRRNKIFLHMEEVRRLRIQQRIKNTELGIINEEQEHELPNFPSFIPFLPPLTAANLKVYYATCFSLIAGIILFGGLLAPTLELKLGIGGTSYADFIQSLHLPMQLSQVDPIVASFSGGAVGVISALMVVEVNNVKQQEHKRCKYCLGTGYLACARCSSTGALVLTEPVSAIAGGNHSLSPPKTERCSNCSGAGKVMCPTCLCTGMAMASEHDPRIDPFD
The assay is described as follows: split reporter.

The target of assay [2] is T2, OR-Like (ORL), split-YFP fusion for BiFC (Arabidopsis thaliana) (UniProt Q8VYD8).
T2 sequence: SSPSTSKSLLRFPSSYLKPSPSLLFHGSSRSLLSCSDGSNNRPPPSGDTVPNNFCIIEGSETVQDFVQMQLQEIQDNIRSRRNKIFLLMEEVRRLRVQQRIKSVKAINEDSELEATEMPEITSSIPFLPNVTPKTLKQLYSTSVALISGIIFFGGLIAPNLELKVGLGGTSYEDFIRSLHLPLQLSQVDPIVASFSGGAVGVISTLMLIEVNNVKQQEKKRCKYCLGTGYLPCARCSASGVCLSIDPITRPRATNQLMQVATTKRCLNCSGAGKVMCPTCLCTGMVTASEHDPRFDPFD
Kind of assay: split reporter.

For assay [3], the target named is T3, OR-Like (ORL), Cub fusion for split-ubiquitin Y2H (Arabidopsis thaliana) (UniProt Q8VYD8).
T3 sequence: T2 sequence
The assay is described as follows: two-hybrid.

No constants are given. Whether binding was seen depends on the method and setting. Binding can be weak; no strength is given. Where a sequence is shown, tags or fusion partners need not be part of it. For part of these data: In cells and extracts the contact can be indirect.

Consider “magnesium chelatase subunit I (CHLI), split-YFP fusion for BiFC (Arabidopsis thaliana)”, for which the binding entry in assay [1] and in assay [2] was “binds” each time.

Take “magnesium chelatase subunit I (CHLI), Nub fusion for split-ubiquitin Y2H (Arabidopsis thaliana)”: the binding result in assay [3] is reported as “binds”.
